Data published in PubChem BioAssay AID248 (DTP/NCI, 2004).
The list shows only some results of the screen, not a fair sample: it gathers tests that were run many times, whatever their T/C, doses with no T/C, and many T/C values between a quarter and a half above the control. Further doses and runs are listed elsewhere. T/C: endpoint of the treated group in % of that of the vehicle group. Some doses have a count of surviving animals in place of a T/C: the source holds a T/C of zero for them, seemingly a mark for toxic or unscored doses. Some survivor counts are full or nearly so, which does not show that the dose was tolerated: survival well below the control is almost never listed, so the zero probably covers shortened survival too. Counts of survivors are from the toxicity check (mostly the fifth day) where no day follows; animals may have died later. Schedule codes are those of the source, taken here to give the interval after Q, in days (D) or hours (H), and the number of doses after X. Some entries hold several experiments; their values stand side by side, smallest first. Some schedules carry Z or #; the key to these is not given. For survival time, the PubChem record calls one and a half times the control and up active, and a quarter to a half above the control has no call in these data; cut-offs in other NCI protocols can differ.

Tested on: L1210 leukemia ip in BDF1 mice, survival T/C
Assay: NCI In Vivo Anticancer Drug Screen. Data for tumor model L1210 Leukemia (intraperitoneal) in B6D2F1 (BDF1) mice
Conditions: T/C endpoint: mean survival time, higher T/C = longer survival
[1] = dose: 200.0 mg/kg/injection, schedule: Q01DX001 (ip), vehicle: Klucel (hydroxypropylcellulose) (HPC)
[2] = dose: 400.0 mg/kg/injection, schedule: Q01DX001 (ip), vehicle: Klucel (hydroxypropylcellulose) (HPC)
[3] = dose: 400.0 mg/kg/injection, schedule: Q04DX003 (ip), vehicle: Klucel (hydroxypropylcellulose) (HPC)
[4] = dose: 100.0 mg/kg/injection, schedule: Q01DX009 (ip), vehicle: Klucel (hydroxypropylcellulose) (HPC)
[5] = dose: 200.0 mg/kg/injection, schedule: Q01DX009 (ip), vehicle: Klucel (hydroxypropylcellulose) (HPC)
[6] = dose: 100.0 mg/kg/injection, schedule: Q04DX003 (ip), vehicle: Klucel (hydroxypropylcellulose) (HPC)
[7] = dose: 200.0 mg/kg/injection, schedule: Q04DX003 (ip), vehicle: Klucel (hydroxypropylcellulose) (HPC)
[8] = dose: 400.0 mg/kg/injection, schedule: Q04DX002 (ip), vehicle: saline with Tween-80
[9] = dose: 400.0 mg/kg/injection, schedule: Q01DX009 (ip), vehicle: saline
[10] = dose: 200.0 mg/kg/injection, schedule: Q01DX001 (ip), vehicle: saline
[11] = dose: 400.0 mg/kg/injection, schedule: Q01DX001 (ip), vehicle: saline
[12] = dose: 400.0 mg/kg/injection, schedule: Q01DX001 (ip), vehicle: carboxymethylcellulose (CMC)

C\C(=C/C(=N/N=C/c1ccco1)c1ccccc1)c1ccccc1
survivor count (dose: 300.0 mg/kg/injection, schedule: Q01DX001 (ip), vehicle: saline): 1 of 6

Cc1c(C#N)c2n(c1C)CCN2
survivor count [1]: 0 of 6 | survivor count [2]: 0 of 6

O=C1OC(OC(=O)c2ccccc2)C(Br)=C1Br (stereo not given)
survivor count [3]: 3 of 6

CNC(=S)c1ccc(Cl)cc1
survivor count (dose: 50.0 mg/kg/injection, schedule: Q01DX009 (ip), vehicle: Klucel (hydroxypropylcellulose) (HPC)): 2 of 6 | survivor count [4]: 0 of 6 | survivor count [5]: 0 of 6 | survivor count (dose: 400.0 mg/kg/injection, schedule: Q01DX009 (ip), vehicle: Klucel (hydroxypropylcellulose) (HPC)): 0 of 6

C1=C(c2ccccc2)CC2CCCC1N2Cc1ccccc1 (stereo not given)
survivor count [6]: 0 of 6 | survivor count [7]: 0 of 6 | survivor count [3]: 0 of 6

O=C(NC(=S)Nc1ccccn1)c1ccccc1
survivor count (dose: 100.0 mg/kg/injection, schedule: Q04DX002 (ip), vehicle: other): 3 of 3 | survivor count (dose: 400.0 mg/kg/injection, schedule: Q04DX002 (ip), vehicle: other): 2 of 3

CCOC(=O)COc1c(C)cccc1Cl
survivor count [8]: 0 of 3

Cc1cccc(NC(=S)NCCc2ccccn2)c1
survivor count [8]: 2 of 3

S=C(S)N1CCN(C(=S)S)CC1
survivor count (dose: 200.0 mg/kg/injection, schedule: Q01DX009 (ip), vehicle: saline): 3 of 6 | survivor count [9]: 0 of 6 | survivor count (dose: 400.0 mg/kg/injection, schedule: Q04DX003 (ip), vehicle: saline): 2 of 6

S=P(c1ccccc1)(N1CCN(c2ccc(Cl)cc2)CC1)N1CCN(c2ccc(Cl)cc2)CC1
survivor count [10]: 6 of 6 | survivor count [7]: 6 of 6

CCCCCCCNC(=O)CI
survivor count [11]: 0 of 4

Cc1c[n+]2c3ccccc3c3ccccc3c2s1
T/C (dose: 10.0 mg/kg/injection, schedule: Q01DX009 (ip), vehicle: Klucel (hydroxypropylcellulose) (HPC)): 125 % of control | survivor count (dose: 20.0 mg/kg/injection, schedule: Q01DX009 (ip), vehicle: Klucel (hydroxypropylcellulose) (HPC)): 3 of 6 | survivor count (dose: 40.0 mg/kg/injection, schedule: Q01DX009 (ip), vehicle: Klucel (hydroxypropylcellulose) (HPC)): 0 of 6 | survivor count (dose: 40.0 mg/kg/injection, schedule: Q04DX003 (ip), vehicle: Klucel (hydroxypropylcellulose) (HPC)): 0 of 6 | survivor count (dose: 80.0 mg/kg/injection, schedule: Q01DX009 (ip), vehicle: Klucel (hydroxypropylcellulose) (HPC)): 0 of 6 | survivor count (dose: 80.0 mg/kg/injection, schedule: Q04DX003 (ip), vehicle: Klucel (hydroxypropylcellulose) (HPC)): 6 of 6

S=C(NP(=S)(NC(=S)OCCN1CC1)NC(=S)OCCN1CC1)OCCN1CC1
survivor count [12]: 0 of 6

CCOC(=O)c1cnc(SC)nc1Nc1ccc([N+](=O)[O-])cc1
survivor count (dose: 100.0 mg/kg/injection, schedule: Q01DX001 (ip), vehicle: Klucel (hydroxypropylcellulose) (HPC)): 6 of 6 | survivor count [1]: 6 of 6 | survivor count [2]: 6 of 6

COc1cccc(C[Si](C)C)c1
survivor count (dose: 400.0 mg/kg/injection, schedule: Q04DX003 (ip), vehicle: saline with Tween-80): 6 of 6

N#Cc1cn(C2OC(CO)C(O)C2O)c2ncn(O)c(=N)c12 (stereo not given)
survivor count (dose: 3.12 mg/kg/injection, schedule: Q01DX005 (ip), vehicle: saline): 5 of 6 | survivor count (dose: 6.25 mg/kg/injection, schedule: Q01DX005 (ip), vehicle: saline): 2 of 6 | survivor count (dose: 12.5 mg/kg/injection, schedule: Q01DX005 (ip), vehicle: saline): 0 of 6 | survivor count (dose: 25.0 mg/kg/injection, schedule: Q01DX005 (ip), vehicle: saline): 0 of 6 | survivor count (dose: 50.0 mg/kg/injection, schedule: Q01DX005 (ip), vehicle: saline): 0 of 6 | survivor count (dose: 100.0 mg/kg/injection, schedule: Q01DX005 (ip), vehicle: saline): 0 of 6 | survivor count (dose: 200.0 mg/kg/injection, schedule: Q01DX005 (ip), vehicle: saline): 0 of 6

NC(N)=N/N=C/c1ccccc1F
survivor count (dose: 60.0 mg/kg/injection, schedule: Q01DX Z (ip), vehicle: saline): 0 of 6 | survivor count (dose: 120.0 mg/kg/injection, schedule: Q01DX Z (ip), vehicle: saline): 0 of 6

COc1cc(C[C@H]2c3cc(OC)c(OC)cc3CCN2C)c(Oc2cc3c(cc2OC)-c2c(OC)c(OC)cc4c2[C@H](C3)N(C)CC4)cc1OC
survivor count (dose: 200.0 mg/kg/injection, schedule: Q01DX009 (ip), vehicle: clinical formulation): 6 of 10 | survivor count (dose: 320.0 mg/kg/injection, schedule: Q01DX015 (ip), vehicle: carboxymethylcellulose (CMC)): 1 of 4 | survivor count (dose: 400.0 mg/kg/injection, schedule: Q01DX009 (ip), vehicle: clinical formulation): 0 of 10 | survivor count (dose: 432.0 mg/kg/injection, schedule: Q08DX002 (ip), vehicle: other): 5 of 10 | survivor count (dose: 576.0 mg/kg/injection, schedule: Q04DX003 (ip), vehicle: other): 1 of 10 | survivor count (dose: 864.0 mg/kg/injection, schedule: Q08DX002 (ip), vehicle: other): 0 of 10

CSC(c1ccc(Oc2ccccc2)cc1)=[N+]1CCCCC1
survivor count (dose: 75.0 mg/kg/injection, schedule: Q01DX001 (ip), vehicle: steroid suspending solution): 0 of 6 | survivor count (dose: 150.0 mg/kg/injection, schedule: Q01DX001 (ip), vehicle: steroid suspending solution): 1 of 6 | survivor count (dose: 300.0 mg/kg/injection, schedule: Q01DX001 (ip), vehicle: steroid suspending solution): 0 of 6

c1cc2cc3c(cc2cc1CC1NCCc2cc4c(cc21)OCO4)OCO3 (stereo not given)
survivor count [5]: 2 of 6 | survivor count [3]: 6 of 6

CCC(C)c1ccc(OCCO)cc1 (stereo not given)
survivor count [11]: 1 of 4

Nc1cc(F)c2c(c1)Cc1cc(F)ccc1-2
survivor count [12]: 0 of 4

NNC(=O)c1cccs1
survivor count (dose: 100.0 mg/kg/injection, schedule: Q01DX001 (ip), vehicle: carboxymethylcellulose (CMC)): 2 of 4 | survivor count [4]: 1 of 6 | survivor count [6]: 6 of 6 | survivor count (dose: 200.0 mg/kg/injection, schedule: Q01DX001 (ip), vehicle: carboxymethylcellulose (CMC)): 0 of 4 | survivor count [7]: 0 of 6 | survivor count [12]: 0 of 4 | survivor count [3]: 0 of 6

O=C1OC(=O)C2CCC12 (stereo not given)
survivor count [9]: 3 of 6

CC(O)C(NC(=O)OCc1ccccc1)C(=O)NC(CO)C(=O)NN (stereo not given)
survivor count [10]: 1 of 4 | survivor count [11]: 0 of 6 and 1 of 4

O=C(Cl)C1CCC1C(=O)Cl (stereo not given)
survivor count (dose: 300.0 mg/kg/injection, schedule: Q01DX001 (ip), vehicle: carboxymethylcellulose (CMC)): 3 of 6
